These are yes or no findings as the source states them, for the method shown. In cells and extracts the contact can be indirect. Here binding means that the protein was enriched with, or labelled near, the bait; the list need not be complete.
molecular target: MYCN Proto-Oncogene, BHLH Transcription Factor (human (endogenous in BE(2)-C)) (UniProt P04198); assay: affinity purification with mass spectrometry; BE(2)-C cell lysates immunoprecipitated with an antibody against MYCN on Protein A/G magnetic beads, overnight at 4 °C; lysis buffer 1% NP40, 150 nM NaCl (so in the source), 50 mM Tris-Cl pH 7.2, 1 mM EDTA; eluted with 50 mM glycine pH 2.8, analysed by MS

Protein sequences, listed by entry. Tags and fused reporters are not part of them.
UniProt P04198: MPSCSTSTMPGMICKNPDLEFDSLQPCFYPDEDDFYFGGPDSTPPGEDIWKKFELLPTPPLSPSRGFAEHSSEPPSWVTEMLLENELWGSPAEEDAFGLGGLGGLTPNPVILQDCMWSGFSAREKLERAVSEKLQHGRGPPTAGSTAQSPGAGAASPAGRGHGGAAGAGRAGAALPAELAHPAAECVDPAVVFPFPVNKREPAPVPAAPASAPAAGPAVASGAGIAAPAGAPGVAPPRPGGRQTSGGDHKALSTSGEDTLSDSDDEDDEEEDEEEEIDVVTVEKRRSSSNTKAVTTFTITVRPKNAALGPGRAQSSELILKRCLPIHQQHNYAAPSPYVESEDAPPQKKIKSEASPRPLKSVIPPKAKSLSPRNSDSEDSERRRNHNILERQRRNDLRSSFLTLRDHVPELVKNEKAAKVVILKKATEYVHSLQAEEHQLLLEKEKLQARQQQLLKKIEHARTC
UniProt Q06587: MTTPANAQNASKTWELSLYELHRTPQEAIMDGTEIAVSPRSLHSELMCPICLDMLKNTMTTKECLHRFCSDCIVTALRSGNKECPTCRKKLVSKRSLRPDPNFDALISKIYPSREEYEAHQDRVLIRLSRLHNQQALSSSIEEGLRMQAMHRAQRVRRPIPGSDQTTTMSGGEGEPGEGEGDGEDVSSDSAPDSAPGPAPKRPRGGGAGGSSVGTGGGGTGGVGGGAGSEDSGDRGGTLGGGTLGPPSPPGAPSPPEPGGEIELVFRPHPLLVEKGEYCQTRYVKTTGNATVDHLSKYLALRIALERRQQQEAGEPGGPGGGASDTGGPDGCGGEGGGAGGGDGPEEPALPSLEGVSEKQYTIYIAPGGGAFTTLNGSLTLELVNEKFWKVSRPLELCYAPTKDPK
UniProt Q99496: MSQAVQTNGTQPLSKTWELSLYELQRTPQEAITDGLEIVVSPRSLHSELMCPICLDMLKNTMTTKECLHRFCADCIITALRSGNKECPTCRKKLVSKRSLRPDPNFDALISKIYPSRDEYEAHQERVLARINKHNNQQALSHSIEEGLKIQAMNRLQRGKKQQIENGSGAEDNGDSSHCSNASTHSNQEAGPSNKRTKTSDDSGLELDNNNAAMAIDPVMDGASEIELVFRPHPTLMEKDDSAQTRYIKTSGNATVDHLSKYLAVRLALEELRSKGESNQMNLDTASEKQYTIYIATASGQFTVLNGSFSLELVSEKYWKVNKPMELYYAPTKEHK
UniProt P35226: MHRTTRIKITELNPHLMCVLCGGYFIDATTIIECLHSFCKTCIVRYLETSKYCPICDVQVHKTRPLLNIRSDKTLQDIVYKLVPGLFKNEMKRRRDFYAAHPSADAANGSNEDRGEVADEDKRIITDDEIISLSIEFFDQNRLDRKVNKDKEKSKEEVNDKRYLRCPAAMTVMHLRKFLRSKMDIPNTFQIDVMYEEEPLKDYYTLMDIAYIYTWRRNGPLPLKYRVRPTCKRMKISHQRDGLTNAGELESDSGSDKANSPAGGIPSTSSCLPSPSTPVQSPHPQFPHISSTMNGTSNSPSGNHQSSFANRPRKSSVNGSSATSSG

| binding | Substance |
| --- | --- |
| binds | RING1A (from UniProt Q06587 1-406) |
| binds | RING1B (from UniProt Q99496 1-336) |
| binds | BMI1 (from UniProt P35226 1-326) |
